Experimental data from paper PMC6744417, “ALKBH overexpression in head and neck cancer: potential target for novel anticancer therapy” (Scientific Reports, 2019).

Experiments:
Format in all cases: cell-based, human
Settings in all cases: TI = IC50 normal cells (EUFA30)/IC50 cancer cells
HeLa cells = assay: Alamar Blue viability assay, HeLa
Procedure: (§1) Alamar Blue (Invitrogen) viability assay was performed according to manufacturer’s protocol: after 4 h incubation, emission at 590 nm was measured with excitation at 560 nm using a scanning multiwall multimode spectrophotometer (DTX 880, Beckman Coulter). The experiment was carried out at least three times, with three replicates for each inhibitor concentration. […] All the calculations were done using Origin 9.0 software.

HEK293 cells = assay: Alamar Blue viability assay, HEK293
Procedure: as §1

U87 cells = assay: Alamar Blue viability assay, U87
Procedure: Exponentially growing cells at the density of 3 × 10^3 cells/well were seeded onto a 96-well plate, cultured for 18 h followed by the respective treatment of antraquinones or its derivatives in various concentrations or 34 nM RNA interference of ALKBH proteins, and then cultured for a an additional 48 h. Alamar Blue (Invitrogen) viability assay was performed according to manufacturer’s protocol: after 4 h incubation, emission at 590 nm was measured with excitation at 560 nm using a scanning multiwall multimode spectrophotometer (DTX 880, Beckman Coulter). The experiment was carried out at least three times, with three replicates for each inhibitor concentration. After background subtraction, inhibition rates, IC50, values were calculated as the concentration of the component that inhibits cell growth by 50%. All the calculations were done using Origin 9.0 software.

BICR18 cells = assay: Alamar Blue viability assay, BICR18
Procedure: as §1

Row | SMILES | Therapeutic index HeLa (HeLa cells) | Therapeutic index HEK293 (HEK293 cells) | Therapeutic index U87 (U87 cells) | Therapeutic index BICR18 (BICR18 cells)
1 | Cc1c(Cl)c(O)c2c(c1Cl)C(=O)c1cc(O)cc(O)c1C2=O [5,7-Dichloroemodin] | 9.6 | 1.2 | 0.6 | 2.6
2 | Cc1cc(O)c2c(c1)C(=O)c1cc(O)cc(O)c1C2=O [Emodin] | 1.25 |  | 3.2 | 1.7
3 | O=C1c2cccc(O)c2C(=O)c2c(O)cc(CO)cc21 [Aloe-Emodin] | 14.6 |  |  | 6.6
4 | Cc1cc2c(c(O)c1Cl)C(=O)c1c(O)cc(O)cc1C2=O [7-Chloroemodin] | 4.8 | 0.9 | 1.36 | 1.6
5 | Cc1c(C(=O)O)c(O)cc2c1C(=O)c1c(O)c([C@@H]3O[C@H](CO)[C@@H](O)[C@H](O)[C@H]3O)c(O)c(O)c1C2=O [Carminic Acid, Carminic acid] | 0.8 | 1.4 | 1.2 | 1.0
